Results reported in publication PMC6925443.
These are yes or no findings as the source states them, for the method shown. In cells and extracts the contact can be indirect. For some assays here: Binding calls can cover weak binding; strength is not graded here.

Sequences of proteins named here, by UniProt entry; tags and fusion partners are left off. A change or cut given only in a name is not applied to a line headed by its entry. Residues count along the entry.
UniProt P28799, residues 18-593: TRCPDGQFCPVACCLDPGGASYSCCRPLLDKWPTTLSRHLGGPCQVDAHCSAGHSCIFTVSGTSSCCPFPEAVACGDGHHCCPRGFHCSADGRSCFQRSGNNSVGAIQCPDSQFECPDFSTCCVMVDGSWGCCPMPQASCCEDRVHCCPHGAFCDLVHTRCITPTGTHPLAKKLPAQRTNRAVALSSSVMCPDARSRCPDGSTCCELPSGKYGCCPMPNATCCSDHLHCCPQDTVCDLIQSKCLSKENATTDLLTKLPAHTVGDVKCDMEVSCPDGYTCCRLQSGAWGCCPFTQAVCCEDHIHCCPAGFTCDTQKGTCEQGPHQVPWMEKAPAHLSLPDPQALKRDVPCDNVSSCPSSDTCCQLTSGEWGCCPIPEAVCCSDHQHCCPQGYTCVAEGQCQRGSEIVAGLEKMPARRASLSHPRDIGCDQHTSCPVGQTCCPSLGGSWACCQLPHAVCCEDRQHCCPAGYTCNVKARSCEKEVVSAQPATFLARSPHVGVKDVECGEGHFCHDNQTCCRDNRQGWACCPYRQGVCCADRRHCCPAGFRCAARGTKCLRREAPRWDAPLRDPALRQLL
UniProt P07339: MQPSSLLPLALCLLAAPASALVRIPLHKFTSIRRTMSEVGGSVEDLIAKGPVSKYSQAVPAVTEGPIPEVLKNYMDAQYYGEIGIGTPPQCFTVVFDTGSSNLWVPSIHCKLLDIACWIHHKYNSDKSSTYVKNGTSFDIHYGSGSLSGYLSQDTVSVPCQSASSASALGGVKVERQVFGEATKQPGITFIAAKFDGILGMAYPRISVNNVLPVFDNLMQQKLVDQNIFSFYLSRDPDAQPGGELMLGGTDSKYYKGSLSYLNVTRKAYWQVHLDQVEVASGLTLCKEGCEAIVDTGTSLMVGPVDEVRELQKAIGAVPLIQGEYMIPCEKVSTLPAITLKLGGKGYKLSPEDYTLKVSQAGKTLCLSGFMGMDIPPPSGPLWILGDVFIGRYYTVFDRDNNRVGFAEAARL

What was measured:
[1] = biological target: Progranulin (PGRN) (human (endogenous in brain tissue)) (UniProt P28799); assay: co-IP; RIPA extracts of human middle temporal gyrus (200 ug, centrifuged 14,000 g/30 min); 2 ug goat anti-PGRN or rabbit anti-PSAP on protein G or protein A magnetic beads; 18 h at 4 C; washed three times with RIPA; eluted without reducing agent at 80 C; western blot
[2] = biological target: T1, Prosaposin (PSAP) (human (endogenous in brain tissue)) (UniProt P07602); assay: as above
T1 sequence: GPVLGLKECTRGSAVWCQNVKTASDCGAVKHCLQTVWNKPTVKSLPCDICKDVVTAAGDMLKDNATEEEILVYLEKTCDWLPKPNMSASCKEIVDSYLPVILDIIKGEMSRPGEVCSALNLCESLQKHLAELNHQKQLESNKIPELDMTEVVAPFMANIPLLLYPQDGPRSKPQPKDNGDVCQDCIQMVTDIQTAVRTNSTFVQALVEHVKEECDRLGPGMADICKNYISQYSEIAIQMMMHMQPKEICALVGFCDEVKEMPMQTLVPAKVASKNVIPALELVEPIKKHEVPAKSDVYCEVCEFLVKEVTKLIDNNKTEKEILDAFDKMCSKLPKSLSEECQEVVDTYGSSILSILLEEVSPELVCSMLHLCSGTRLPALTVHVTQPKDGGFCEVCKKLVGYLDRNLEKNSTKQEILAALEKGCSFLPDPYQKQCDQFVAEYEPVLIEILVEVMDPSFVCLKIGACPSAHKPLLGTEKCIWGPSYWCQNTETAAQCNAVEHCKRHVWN

- binding [1]: no binding
- binding [2]: binds weakly
Substance: Cathepsin D (from UniProt P07339) (enzyme)
